This is one part of the list.
Tests used:
Assay in all cases: log2 fold change, soluble protein after heating vs DMSO (PISA); higher = thermal stabilisation; K562 cells, 10 uM, 30 min; active = over 0.2 and 3.5 SD of the protein, either way, in both replicates (recomputed)
[1] = compound: Cc1cccc(CC(=O)N2CCc3c2ccc(-c2cn(C)c4ncnc(N)c24)c3F)n1
Method in brief: (§1)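 For each measurement, 10 μM compound was applied for 30 min to K562 cells at 2×10^6 cells/mL. Aliquots were heated for 3 min across 48°C-58°C, pooled, and extracted in PBS with 0.5% NP-40 at 4°C; the supernatant after 21,000xg for 90 min was soluble protein. This was quantified by TMTpro 16plex LC-MS/MS with channel sums equalised, and thermal stability was reported relative to control samples from duplicates, on a log2 fold-change scale.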

Amino acid sequences for entries named in this document (tags omitted). A change or cut given only in a name is not applied to a line headed by its entry.
UniProt Q9H1E1: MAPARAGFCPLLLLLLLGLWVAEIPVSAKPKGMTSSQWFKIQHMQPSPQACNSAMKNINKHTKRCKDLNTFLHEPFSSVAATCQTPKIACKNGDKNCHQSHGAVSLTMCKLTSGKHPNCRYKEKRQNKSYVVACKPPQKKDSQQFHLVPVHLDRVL
UniProt Q5UIP0: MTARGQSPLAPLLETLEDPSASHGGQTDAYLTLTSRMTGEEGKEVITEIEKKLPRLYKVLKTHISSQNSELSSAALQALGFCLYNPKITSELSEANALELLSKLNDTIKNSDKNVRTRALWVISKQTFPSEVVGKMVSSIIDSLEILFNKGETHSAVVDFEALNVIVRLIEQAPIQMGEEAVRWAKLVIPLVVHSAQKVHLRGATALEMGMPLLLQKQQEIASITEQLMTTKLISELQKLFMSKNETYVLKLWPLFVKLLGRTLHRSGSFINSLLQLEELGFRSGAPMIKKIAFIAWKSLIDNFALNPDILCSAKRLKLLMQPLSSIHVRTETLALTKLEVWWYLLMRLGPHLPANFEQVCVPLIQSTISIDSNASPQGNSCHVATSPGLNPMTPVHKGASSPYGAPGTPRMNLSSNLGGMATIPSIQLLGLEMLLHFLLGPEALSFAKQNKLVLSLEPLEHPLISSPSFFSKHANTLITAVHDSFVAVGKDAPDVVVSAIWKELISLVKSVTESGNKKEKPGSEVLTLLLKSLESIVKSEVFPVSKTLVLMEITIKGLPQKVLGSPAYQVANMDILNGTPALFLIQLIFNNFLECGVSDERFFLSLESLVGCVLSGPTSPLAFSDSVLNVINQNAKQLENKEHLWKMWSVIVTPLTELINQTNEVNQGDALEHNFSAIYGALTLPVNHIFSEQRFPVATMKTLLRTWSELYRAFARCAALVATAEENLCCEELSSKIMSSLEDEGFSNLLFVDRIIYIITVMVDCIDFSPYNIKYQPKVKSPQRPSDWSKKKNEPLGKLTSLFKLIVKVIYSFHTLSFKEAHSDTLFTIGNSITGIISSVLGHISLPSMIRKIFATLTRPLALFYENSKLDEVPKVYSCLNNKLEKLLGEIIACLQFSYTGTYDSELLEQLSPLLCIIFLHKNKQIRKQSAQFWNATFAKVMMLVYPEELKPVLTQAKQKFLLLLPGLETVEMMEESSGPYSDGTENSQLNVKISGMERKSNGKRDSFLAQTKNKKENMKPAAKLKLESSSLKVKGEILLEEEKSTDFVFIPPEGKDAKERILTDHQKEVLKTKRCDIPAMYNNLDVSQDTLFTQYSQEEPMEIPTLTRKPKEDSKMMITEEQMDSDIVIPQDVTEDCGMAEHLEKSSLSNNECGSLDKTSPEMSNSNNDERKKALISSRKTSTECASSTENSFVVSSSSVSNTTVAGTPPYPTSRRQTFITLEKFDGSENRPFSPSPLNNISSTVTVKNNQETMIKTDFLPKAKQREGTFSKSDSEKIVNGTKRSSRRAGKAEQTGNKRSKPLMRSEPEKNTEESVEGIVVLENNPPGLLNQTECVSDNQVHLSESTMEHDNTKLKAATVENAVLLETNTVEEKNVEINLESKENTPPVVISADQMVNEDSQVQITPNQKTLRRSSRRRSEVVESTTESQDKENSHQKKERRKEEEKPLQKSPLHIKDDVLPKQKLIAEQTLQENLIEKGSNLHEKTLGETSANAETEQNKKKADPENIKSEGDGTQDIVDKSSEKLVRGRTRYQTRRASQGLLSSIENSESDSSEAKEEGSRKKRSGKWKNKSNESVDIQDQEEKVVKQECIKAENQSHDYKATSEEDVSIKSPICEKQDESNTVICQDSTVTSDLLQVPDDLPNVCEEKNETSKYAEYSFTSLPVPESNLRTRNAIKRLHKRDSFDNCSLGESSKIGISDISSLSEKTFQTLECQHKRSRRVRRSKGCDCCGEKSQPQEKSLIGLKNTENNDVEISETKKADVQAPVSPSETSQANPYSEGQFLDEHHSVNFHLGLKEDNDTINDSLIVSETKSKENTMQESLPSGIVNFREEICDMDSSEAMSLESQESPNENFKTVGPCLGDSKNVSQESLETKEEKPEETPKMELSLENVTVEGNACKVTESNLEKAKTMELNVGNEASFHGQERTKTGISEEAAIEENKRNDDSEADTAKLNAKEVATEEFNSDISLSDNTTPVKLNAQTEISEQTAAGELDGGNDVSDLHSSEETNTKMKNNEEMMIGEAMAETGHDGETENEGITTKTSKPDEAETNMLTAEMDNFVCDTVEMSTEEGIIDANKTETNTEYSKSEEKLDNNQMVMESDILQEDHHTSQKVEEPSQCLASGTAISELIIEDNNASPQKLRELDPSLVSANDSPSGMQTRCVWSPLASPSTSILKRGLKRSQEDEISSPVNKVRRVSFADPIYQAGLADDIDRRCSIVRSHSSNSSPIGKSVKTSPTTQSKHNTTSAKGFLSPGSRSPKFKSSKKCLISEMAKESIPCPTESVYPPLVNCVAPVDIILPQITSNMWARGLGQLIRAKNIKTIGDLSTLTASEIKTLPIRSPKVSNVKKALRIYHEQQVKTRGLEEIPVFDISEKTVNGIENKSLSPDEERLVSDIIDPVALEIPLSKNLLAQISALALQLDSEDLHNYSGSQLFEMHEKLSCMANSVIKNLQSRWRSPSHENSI
UniProt Q9H6W3: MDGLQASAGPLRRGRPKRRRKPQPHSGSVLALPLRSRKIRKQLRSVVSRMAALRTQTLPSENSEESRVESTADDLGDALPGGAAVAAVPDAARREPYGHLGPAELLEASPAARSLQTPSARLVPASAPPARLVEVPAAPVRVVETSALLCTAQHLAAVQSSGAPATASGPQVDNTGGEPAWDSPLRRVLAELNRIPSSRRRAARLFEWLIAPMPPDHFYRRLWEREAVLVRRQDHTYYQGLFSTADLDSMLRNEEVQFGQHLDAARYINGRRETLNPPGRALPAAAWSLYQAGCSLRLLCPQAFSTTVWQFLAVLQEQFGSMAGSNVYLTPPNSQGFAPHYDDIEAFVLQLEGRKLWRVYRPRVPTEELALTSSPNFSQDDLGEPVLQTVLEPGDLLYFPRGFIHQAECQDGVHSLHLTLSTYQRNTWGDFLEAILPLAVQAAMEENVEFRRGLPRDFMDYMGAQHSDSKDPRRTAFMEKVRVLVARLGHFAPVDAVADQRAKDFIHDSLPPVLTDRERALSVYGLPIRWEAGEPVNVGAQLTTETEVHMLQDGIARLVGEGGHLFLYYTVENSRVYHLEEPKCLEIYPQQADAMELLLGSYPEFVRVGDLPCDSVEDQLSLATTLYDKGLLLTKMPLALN
UniProt Q2KHR2: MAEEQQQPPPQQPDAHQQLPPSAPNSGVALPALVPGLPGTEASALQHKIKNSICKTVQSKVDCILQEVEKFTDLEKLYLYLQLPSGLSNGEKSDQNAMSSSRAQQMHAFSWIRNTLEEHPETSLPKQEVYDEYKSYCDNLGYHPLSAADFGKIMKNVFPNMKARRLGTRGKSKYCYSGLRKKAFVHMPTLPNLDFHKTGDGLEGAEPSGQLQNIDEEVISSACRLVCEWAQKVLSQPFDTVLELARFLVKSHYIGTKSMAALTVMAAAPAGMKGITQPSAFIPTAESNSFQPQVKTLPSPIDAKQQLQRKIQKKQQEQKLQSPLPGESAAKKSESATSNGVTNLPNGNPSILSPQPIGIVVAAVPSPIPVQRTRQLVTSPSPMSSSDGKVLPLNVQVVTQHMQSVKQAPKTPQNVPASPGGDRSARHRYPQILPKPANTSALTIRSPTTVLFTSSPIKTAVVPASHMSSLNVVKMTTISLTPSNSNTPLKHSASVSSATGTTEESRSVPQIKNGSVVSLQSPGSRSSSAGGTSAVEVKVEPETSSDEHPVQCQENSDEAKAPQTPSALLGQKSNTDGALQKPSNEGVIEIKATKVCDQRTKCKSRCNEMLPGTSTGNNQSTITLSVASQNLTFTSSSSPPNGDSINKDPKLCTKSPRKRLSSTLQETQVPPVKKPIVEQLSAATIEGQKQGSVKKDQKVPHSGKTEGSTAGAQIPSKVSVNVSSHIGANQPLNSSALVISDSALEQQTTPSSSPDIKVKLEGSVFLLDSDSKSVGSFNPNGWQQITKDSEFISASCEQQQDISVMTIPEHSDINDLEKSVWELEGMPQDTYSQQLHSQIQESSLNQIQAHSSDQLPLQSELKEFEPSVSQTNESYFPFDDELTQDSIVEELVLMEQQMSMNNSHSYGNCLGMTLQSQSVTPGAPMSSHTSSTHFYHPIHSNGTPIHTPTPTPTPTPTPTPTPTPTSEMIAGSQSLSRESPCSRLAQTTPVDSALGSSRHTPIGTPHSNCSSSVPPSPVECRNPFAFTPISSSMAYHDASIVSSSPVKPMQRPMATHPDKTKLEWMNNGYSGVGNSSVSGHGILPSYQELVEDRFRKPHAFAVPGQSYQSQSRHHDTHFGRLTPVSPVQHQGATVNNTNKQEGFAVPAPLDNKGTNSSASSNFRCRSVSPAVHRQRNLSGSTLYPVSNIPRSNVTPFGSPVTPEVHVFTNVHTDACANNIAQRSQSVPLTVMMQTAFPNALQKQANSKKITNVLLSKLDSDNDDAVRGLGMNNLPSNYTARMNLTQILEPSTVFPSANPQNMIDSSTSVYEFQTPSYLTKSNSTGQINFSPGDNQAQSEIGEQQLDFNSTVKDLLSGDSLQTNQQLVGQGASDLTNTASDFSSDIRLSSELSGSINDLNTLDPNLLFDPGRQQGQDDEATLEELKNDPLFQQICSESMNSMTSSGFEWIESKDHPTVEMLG
UniProt Q9Y3C5: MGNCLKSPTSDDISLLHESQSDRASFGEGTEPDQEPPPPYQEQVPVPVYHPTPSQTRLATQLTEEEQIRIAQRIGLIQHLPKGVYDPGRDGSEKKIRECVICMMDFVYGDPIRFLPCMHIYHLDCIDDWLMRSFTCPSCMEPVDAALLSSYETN
UniProt Q96LZ7: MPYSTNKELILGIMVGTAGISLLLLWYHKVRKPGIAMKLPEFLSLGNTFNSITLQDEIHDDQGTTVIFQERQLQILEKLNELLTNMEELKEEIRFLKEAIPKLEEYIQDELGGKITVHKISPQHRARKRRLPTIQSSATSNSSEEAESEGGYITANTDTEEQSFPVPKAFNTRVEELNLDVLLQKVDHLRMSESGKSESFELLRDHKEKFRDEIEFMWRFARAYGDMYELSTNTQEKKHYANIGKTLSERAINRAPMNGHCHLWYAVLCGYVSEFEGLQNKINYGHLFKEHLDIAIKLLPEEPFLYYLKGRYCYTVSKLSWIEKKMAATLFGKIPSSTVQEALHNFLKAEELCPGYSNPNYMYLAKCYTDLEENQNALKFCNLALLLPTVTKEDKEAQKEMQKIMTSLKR
UniProt O14593: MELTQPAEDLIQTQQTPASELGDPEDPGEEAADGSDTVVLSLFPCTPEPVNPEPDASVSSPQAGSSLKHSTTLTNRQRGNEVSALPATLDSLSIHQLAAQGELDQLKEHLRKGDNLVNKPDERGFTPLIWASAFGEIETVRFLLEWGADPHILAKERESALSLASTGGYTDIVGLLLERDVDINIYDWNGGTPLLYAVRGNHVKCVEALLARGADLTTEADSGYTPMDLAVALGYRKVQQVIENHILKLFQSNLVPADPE
UniProt Q6ZNA4: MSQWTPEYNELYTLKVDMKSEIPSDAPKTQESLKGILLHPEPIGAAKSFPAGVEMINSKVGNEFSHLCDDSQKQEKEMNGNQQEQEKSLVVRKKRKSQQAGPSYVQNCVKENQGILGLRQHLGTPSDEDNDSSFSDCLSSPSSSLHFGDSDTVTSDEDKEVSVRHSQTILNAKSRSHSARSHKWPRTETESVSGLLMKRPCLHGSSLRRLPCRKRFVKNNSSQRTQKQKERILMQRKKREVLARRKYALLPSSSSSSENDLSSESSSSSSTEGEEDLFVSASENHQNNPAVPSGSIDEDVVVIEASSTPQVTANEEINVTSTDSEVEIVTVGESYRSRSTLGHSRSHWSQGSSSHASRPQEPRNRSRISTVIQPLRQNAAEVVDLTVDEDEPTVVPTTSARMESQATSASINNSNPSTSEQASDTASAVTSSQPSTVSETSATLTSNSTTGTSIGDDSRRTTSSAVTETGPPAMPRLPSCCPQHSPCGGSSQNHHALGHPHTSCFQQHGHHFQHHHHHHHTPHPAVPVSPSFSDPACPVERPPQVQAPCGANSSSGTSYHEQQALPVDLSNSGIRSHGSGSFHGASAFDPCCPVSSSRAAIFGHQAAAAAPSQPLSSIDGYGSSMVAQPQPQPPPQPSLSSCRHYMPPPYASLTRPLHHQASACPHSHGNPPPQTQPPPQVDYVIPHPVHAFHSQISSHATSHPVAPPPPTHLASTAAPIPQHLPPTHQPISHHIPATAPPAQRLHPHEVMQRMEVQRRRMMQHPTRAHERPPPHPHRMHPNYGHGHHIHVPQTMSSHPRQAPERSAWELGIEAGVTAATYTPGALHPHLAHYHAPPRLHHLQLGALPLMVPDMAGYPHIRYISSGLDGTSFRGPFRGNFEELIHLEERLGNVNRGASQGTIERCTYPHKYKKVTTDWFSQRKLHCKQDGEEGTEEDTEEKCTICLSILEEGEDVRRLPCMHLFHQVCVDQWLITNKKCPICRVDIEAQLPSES

dasatinib = compound: Cc1nc(Nc2ncc(C(=O)Nc3c(C)cccc3Cl)s2)cc(N2CCN(CCO)CC2)n1 [dasatinib]
Method in brief: as §1

[2] = compound: Cn1cc(-c2ccc3c(c2)CCN3C(=O)Cc2cccc(C(F)(F)F)c2)c2c(N)ncnc21
Method in brief: as §1

[3] = compound: Cn1cc(-c2ccc3nnc(C(F)(F)c4ccc5ncccc5c4)n3n2)cn1
Method in brief: as §1

tipifarnib = compound: Cn1cncc1[C@@](N)(c1ccc(Cl)cc1)c1ccc2c(c1)c(-c1cccc(Cl)c1)cc(=O)n2C [tipifarnib]
Method in brief: as §1

[4] = compound: NC(=O)Nc1cc(-c2cccc(F)c2)sc1C(=O)N[C@H]1CCCNC1
Method in brief: as §1

[5] = compound: NC(=O)c1cnc(N[C@@H]2CCCC[C@@H]2N)nc1Nc1cccc(-n2nccn2)c1
Method in brief: as §1

[6] = compound: NCC(=O)Nc1ccc(-n2nc(C(F)(F)F)cc2-c2ccc3c(ccc4ccccc43)c2)cc1
Method in brief: as §1

entinostat = compound: Nc1ccccc1NC(=O)c1ccc(CNC(=O)OCc2cccnc2)cc1 [entinostat]
Method in brief: as §1

vorinostat = compound: O=C(CCCCCCC(=O)Nc1ccccc1)NO [vorinostat]
Method in brief: as §1

citarinostat = compound: O=C(CCCCCCNC(=O)c1cnc(N(c2ccccc2)c2ccccc2Cl)nc1)NO [citarinostat]
Method in brief: as §1

[7] = compound: c1cc(OCCN2CCCCC2)cc(-c2n[nH]c3ccc(-c4nnc[nH]4)cc23)c1
Method in brief: as §1

bafetinib = compound: Cc1ccc(NC(=O)c2ccc(CN3CC[C@H](N(C)C)C3)c(C(F)(F)F)c2)cc1Nc1nccc(-c2cncnc2)n1 [bafetinib]
Method in brief: as §1

[8] = compound: O=C1NC(=O)C(c2cnc3ccccn23)=C1c1cn2c3c(cc(F)cc13)CN(C(=O)N1CCCCC1)CC2
Method in brief: as §1

nilotinib = compound: Cc1cn(-c2cc(NC(=O)c3ccc(C)c(Nc4nccc(-c5cccnc5)n4)c3)cc(C(F)(F)F)c2)cn1 [nilotinib]
Method in brief: as §1

[9] = compound: Cc1nc(Nc2n[nH]c3c2CN(C(=O)N[C@H](CN(C)C)c2ccccc2)C3(C)C)c2sccc2n1
Method in brief: as §1

[10] = compound: Cc1ncc(-c2ccnc(Nc3ccc(S(C)(=O)=O)cc3)n2)n1C(C)C
Method in brief: as §1

mubritinib = compound: FC(F)(F)c1ccc(/C=C/c2nc(COc3ccc(CCCCn4ccnn4)cc3)co2)cc1 [mubritinib]
Method in brief: as §1

[11] = compound: NC1(c2ccc(-c3nc4ccn5c(=O)[nH]nc5c4cc3-c3ccccc3)cc2)CCC1
Method in brief: as §1

silmitasertib = compound: O=C(O)c1ccc2c(c1)nc(Nc1cccc(Cl)c1)c1ccncc12 [silmitasertib]
Method in brief: as §1

Measured: log2 fold change

RLIM (UniProt Q9NVW2)
inactive: [1] -0.065 | dasatinib -0.03 | [2] 0.259 | [3] -0.068 | tipifarnib -0.011 | [4] 0.117 | [5] -0.063 | [6] -0.019 | entinostat -0.219 | vorinostat 0.122 | citarinostat 0.027 | [7] -0.123

RFX3 (UniProt P48380)
inactive: bafetinib -0.135 | tipifarnib -0.097 | [4] -0.023 | entinostat 0.023 | citarinostat 0.04 | [7] 0.003

RFWD3 (UniProt Q6PCD5)
inactive: [2] 0.17 | tipifarnib 0.371 | [4] 0.113 | [5] -0.234 | [6] -0.199 | entinostat 0.046 | [8] -0.025

RNF220 isoform 3 (UniProt Q5VTB9)
inactive: tipifarnib -0.282 | [5] 0.115

RHD (UniProt Q02161)
inactive: nilotinib 0.116 | [9] -0.128 | [10] 0.122 | [2] -0.058 | tipifarnib -0.104 | [5] 0.039

RC3H2 (UniProt Q9HBD1)
inactive: [1] -0.072 | tipifarnib 0.107 | vorinostat -0.017 | [8] 0.031

RNF166 (UniProt Q96A37)
inactive: [1] 0.007 | dasatinib 0.044 | [2] 0.003 | [3] -0.031 | tipifarnib -0.064 | mubritinib 0.077 | [4] -0.022 | [5] 0.022 | [11] 0.026 | [6] 0.031 | entinostat 0.004 | vorinostat -0.024 | silmitasertib 0.041

RMI2 (UniProt Q96E14)
inactive: dasatinib -0.111 | [2] 0.025 | [3] -0.151 | tipifarnib -0.299 | mubritinib 0.144 | [5] -0.065 | [11] 0.192 | [6] 0.151 | silmitasertib -0.041

RNF130 (UniProt Q86XS8)
inactive: bafetinib -0.034 | [2] 0.146 | tipifarnib 0.1 | mubritinib 0.156 | [11] -0.076 | citarinostat 0.037 | silmitasertib -0.153 | [7] 0.288

RC3H1 (UniProt Q5TC82)
inactive: [1] -0.343 | dasatinib -0.108 | [2] -0.09 | tipifarnib 0.013 | mubritinib -0.215 | [4] 0.068 | [5] 0.304 | [11] 0.176 | [6] 0.018 | entinostat -0.004 | vorinostat -0.045 | citarinostat -0.112 | silmitasertib 0.146 | [8] 0.142 | [7] -0.117

RBP1 isoform 3 (UniProt P09455)
inactive: [1] -0.309 | dasatinib 0.178 | vorinostat -0.228

RNF13 (UniProt O43567)
inactive: bafetinib -0.118 | dasatinib 0.07 | [2] -0.004 | [4] -0.008 | [5] -0.04 | [6] 0.085 | entinostat -0.016 | citarinostat -0.035 | [8] 0.065 | [7] 0.063

RNASEL (UniProt Q05823)
inactive: [1] 0.058 | [3] 0.02 | mubritinib -0.434 | [11] 0.068 | vorinostat -0.403 | silmitasertib 0.087

RNF115 (UniProt Q9Y4L5)
inactive: nilotinib -0.015 | [9] -0.07 | [10] -0.007

RIMKLB (UniProt Q9ULI2)
inactive: bafetinib 0.003 | nilotinib 0.062 | [9] -0.118 | [10] -0.012 | tipifarnib 0.038 | mubritinib -0.012 | [4] -0.172 | [11] -0.069 | entinostat 0.425 | citarinostat -0.081 | silmitasertib 0.166 | [8] -0.087 | [7] -0.01

RCL1 (UniProt Q5VZU2)
inactive: dasatinib 0.149 | [3] 0.132 | [5] -0.225 | [8] 0.257

RIT1 isoform 3 (UniProt Q92963)
inactive: [1] -0.074 | vorinostat 0.138 | [8] -0.016

RNASE7 (UniProt Q9H1E1)
inactive: [5] 0.639

RILPL1 (UniProt Q5EBL4)
inactive: dasatinib -0.429 | [2] 0.101 | [3] -0.017 | mubritinib 0.132 | [4] 0.013 | [11] 0.056 | [6] 0.026 | entinostat 0.035 | citarinostat 0.131 | silmitasertib 0.212 | [8] 0.06 | [7] -0.009

RIF1 (UniProt Q5UIP0)
inactive: [1] -0.099 | nilotinib -0.145 | [9] -0.134 | dasatinib -0.13 | [10] 0.076 | [2] -0.128 | [3] -0.131 | tipifarnib 0.411 | [4] 0.286 | [6] 0.137 | entinostat 0.065 | vorinostat 0.144 | citarinostat -0.037 | [8] -0.295 | [7] 0.032

RIOX1 (UniProt Q9H6W3)
inactive: [1] -0.274 | vorinostat 0.467 | citarinostat -0.105 | [7] -0.344

RBM6 (UniProt P78332)
inactive: [1] -0.048 | nilotinib 0.062 | [9] -0.109 | dasatinib 0.025 | [10] -0.194 | [2] -0.052 | tipifarnib 0.028 | mubritinib -0.072 | [4] 0.099 | [5] -0.06 | [11] 0.222 | entinostat -0.317 | vorinostat -0.012 | silmitasertib 0.017

RFX7 (UniProt Q2KHR2)
inactive: dasatinib 0.054 | [4] -0.081 | entinostat 0.033

RNF169 (UniProt Q8NCN4)
inactive: [1] 0.063 | dasatinib 0.028 | [2] 0.041 | tipifarnib 0.224 | vorinostat 0.187

RNF11 (UniProt Q9Y3C5)
inactive: [3] 0.019 | citarinostat -0.1 | [7] -0.039

RHOXF2B (UniProt P0C7M4)
inactive: tipifarnib 0.073 | [4] -0.113 | [5] 0.079 | entinostat -0.051

REX1BD (UniProt Q96EN9)
inactive: [2] -0.042

Three records drawn at random from the list so far:
REX1BD (UniProt Q96EN9)
inactive: [2] -0.042

RHOXF2B (UniProt P0C7M4)
inactive: tipifarnib 0.073 | [4] -0.113 | [5] 0.079 | entinostat -0.051

RFX7 (UniProt Q2KHR2)
inactive: dasatinib 0.054 | [4] -0.081 | entinostat 0.033

Remaining list, next part:

RICTOR isoform 3 (UniProt Q6R327)
inactive: [1] 0.141 | nilotinib -0.102 | [9] 0.176 | dasatinib -0.044 | [10] -0.023 | tipifarnib -0.052 | [4] 0.075 | [5] 0.054 | entinostat 0.044 | vorinostat 0.211 | citarinostat 0.066 | [8] 0.289 | [7] -0.155

RFC1 (UniProt P35251)
inactive: [1] 0.119 | dasatinib -0.061 | [2] 0.027 | [3] -0.033 | [4] -0.028 | [5] 0.098 | [6] -0.021 | entinostat -0.059 | vorinostat 0.05

RIC8B isoform 1 (UniProt Q9NVN3)
inactive: [8] 0.123

RMDN2 isoform 2 (UniProt Q96LZ7)
inactive: nilotinib -0.556 | [9] 0.661 | [10] -0.115 | [3] -0.104 | mubritinib -0.231 | [11] -0.018 | [6] 0.116 | silmitasertib -0.275

RFXANK (UniProt O14593)
inactive: [1] 0.068 | vorinostat 0.04 | [8] 0.102

RGN (UniProt Q15493)
inactive: nilotinib 0.036 | [9] 0.136 | [10] -0.04 | tipifarnib -0.032 | [4] 0.121 | [5] 0.13 | [6] -0.082 | entinostat -0.074 | citarinostat -0.171 | [7] 0

RIPOR1 isoform 4 (UniProt Q6ZS17)
inactive: [3] -0.283 | [8] 0.302

RNF111 isoform 3 (UniProt Q6ZNA4)
inactive: [1] -0.088 | nilotinib 0.028 | [9] -0.093 | [10] -0.044 | vorinostat 0.051

RCBTB1 (UniProt Q8NDN9)
inactive: bafetinib 0.147 | dasatinib -0.081 | [2] -0.071 | [4] -0.266 | entinostat -0.035 | [8] 0.273

RNF146 (UniProt Q9NTX7)
inactive: bafetinib -0.114 | dasatinib -0.028 | [2] 0.049 | [3] -0.132 | tipifarnib -0.083 | [4] -0.085 | [5] -0.084 | [6] -0.057 | entinostat 0.036 | citarinostat 0.123 | [8] -0.039 | [7] -0.005

2 successive records from above:
RNF111 isoform 3 (UniProt Q6ZNA4)
inactive: [1] -0.088 | nilotinib 0.028 | [9] -0.093 | [10] -0.044 | vorinostat 0.051

RCBTB1 (UniProt Q8NDN9)
inactive: bafetinib 0.147 | dasatinib -0.081 | [2] -0.071 | [4] -0.266 | entinostat -0.035 | [8] 0.273

Next entries follow.

RILPL2 (UniProt Q969X0)
inactive: [8] 0.067

RECQL5 (UniProt O94762)
inactive: [1] -0.047 | dasatinib -0.305 | [2] -0.078 | [6] 0.048 | vorinostat 0.059

From the supplement of paper PMC10849652
